Results are given in words; binding and its absence hold for the method and conditions named. In cells and extracts the contact can be indirect. Here binding means that the protein was enriched with, or labelled near, the bait; the list need not be complete.
B1: YWHAQ (protein, UniProt P68254 1-245)
chain: MEKTELIQKAKLAEQAERYDDMATCMKAVTEQGAELSNEERNLLSVAYKNVVGGRRSAWRVISSIEQKTDTSDKKLQLIKDYREKVESELRSICTTVLELLDKYLIANATNPESKVFYLKMKGDYFRYLAEVACGDDRKQTIENSQGAYQEAFDISKKEMQPTHPIRLGLALNFSVFYYEILNNPELACTLAKTAFDEAIAELDTLNEDSYKDSTLIMQLLRDNLTLWTSDSAGEECDAAEGAEN

Sequences of proteins named here, by UniProt entry; tags and fusion partners are left off.
UniProt Q9JI91: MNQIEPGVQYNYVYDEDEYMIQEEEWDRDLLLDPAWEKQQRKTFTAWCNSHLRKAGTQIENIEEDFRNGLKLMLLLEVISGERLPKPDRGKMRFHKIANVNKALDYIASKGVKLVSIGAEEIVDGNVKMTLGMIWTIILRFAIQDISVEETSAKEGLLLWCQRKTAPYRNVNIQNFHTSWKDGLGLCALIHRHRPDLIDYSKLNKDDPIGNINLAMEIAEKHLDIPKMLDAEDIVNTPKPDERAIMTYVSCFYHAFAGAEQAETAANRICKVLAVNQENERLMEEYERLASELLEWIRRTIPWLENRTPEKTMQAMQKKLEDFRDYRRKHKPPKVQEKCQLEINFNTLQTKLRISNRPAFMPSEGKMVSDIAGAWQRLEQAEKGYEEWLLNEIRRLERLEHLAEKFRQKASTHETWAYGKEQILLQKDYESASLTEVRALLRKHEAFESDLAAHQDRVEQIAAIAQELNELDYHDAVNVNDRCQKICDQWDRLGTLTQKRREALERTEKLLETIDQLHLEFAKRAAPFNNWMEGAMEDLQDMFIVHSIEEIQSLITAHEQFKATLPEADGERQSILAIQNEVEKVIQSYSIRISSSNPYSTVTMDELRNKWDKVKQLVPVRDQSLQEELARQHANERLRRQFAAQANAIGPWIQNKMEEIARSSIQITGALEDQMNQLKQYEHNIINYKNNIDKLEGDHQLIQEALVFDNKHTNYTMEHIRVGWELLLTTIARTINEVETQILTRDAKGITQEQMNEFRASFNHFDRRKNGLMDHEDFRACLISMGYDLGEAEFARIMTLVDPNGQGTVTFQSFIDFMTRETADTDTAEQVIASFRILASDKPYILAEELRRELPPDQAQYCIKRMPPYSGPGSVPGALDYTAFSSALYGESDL
UniProt Q91Z83: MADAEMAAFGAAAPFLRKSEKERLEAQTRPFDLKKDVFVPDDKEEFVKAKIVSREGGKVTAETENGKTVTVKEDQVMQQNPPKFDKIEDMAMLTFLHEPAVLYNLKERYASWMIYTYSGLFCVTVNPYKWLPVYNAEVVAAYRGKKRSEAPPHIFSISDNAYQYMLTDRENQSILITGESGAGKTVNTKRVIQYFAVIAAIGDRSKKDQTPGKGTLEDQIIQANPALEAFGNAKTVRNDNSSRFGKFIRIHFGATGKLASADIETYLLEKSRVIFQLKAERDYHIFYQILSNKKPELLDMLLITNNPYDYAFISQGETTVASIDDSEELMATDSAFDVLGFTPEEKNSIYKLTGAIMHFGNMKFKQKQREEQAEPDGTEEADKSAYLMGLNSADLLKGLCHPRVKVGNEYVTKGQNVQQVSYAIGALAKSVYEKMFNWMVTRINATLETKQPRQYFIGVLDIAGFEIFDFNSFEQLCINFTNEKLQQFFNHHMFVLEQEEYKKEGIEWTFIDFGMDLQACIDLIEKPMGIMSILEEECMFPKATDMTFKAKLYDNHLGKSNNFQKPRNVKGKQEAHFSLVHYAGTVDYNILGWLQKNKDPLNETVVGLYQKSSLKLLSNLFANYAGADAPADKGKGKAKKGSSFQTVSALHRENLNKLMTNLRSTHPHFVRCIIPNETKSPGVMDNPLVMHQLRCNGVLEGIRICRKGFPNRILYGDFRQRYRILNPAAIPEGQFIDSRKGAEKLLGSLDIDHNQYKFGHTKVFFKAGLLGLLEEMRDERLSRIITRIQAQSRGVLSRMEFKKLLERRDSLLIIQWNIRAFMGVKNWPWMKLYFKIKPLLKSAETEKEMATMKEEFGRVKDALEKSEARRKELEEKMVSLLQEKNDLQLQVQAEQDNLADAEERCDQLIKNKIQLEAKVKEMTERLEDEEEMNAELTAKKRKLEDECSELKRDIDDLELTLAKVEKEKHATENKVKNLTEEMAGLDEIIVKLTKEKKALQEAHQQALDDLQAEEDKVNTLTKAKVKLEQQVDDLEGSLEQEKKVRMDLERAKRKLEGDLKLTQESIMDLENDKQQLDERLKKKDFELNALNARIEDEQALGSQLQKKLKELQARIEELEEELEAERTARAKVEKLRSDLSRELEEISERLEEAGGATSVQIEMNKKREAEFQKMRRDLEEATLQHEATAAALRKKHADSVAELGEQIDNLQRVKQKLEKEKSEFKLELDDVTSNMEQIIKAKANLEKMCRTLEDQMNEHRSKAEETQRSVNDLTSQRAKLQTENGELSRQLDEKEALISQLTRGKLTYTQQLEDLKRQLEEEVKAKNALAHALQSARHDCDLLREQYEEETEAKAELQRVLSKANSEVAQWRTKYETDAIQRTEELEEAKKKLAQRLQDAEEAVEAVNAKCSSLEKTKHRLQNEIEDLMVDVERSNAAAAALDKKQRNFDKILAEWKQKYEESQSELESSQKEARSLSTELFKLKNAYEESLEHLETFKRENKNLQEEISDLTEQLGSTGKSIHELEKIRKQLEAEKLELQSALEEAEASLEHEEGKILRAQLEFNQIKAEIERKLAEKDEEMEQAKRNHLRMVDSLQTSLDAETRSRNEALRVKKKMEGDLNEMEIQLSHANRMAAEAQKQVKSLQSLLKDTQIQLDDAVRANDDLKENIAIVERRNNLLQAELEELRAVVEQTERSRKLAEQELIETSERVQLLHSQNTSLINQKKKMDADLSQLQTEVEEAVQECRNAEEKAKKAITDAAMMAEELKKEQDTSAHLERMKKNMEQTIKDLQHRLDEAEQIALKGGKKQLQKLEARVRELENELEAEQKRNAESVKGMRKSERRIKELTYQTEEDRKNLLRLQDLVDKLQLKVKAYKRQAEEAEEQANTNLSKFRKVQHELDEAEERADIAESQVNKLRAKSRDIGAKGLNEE

Molecular target: T1, Sorbin and SH3 domain-containing protein 2 (mouse (endogenous in mouse myocardial tissue)) (UniProt Q3UTJ2)
T1 sequence: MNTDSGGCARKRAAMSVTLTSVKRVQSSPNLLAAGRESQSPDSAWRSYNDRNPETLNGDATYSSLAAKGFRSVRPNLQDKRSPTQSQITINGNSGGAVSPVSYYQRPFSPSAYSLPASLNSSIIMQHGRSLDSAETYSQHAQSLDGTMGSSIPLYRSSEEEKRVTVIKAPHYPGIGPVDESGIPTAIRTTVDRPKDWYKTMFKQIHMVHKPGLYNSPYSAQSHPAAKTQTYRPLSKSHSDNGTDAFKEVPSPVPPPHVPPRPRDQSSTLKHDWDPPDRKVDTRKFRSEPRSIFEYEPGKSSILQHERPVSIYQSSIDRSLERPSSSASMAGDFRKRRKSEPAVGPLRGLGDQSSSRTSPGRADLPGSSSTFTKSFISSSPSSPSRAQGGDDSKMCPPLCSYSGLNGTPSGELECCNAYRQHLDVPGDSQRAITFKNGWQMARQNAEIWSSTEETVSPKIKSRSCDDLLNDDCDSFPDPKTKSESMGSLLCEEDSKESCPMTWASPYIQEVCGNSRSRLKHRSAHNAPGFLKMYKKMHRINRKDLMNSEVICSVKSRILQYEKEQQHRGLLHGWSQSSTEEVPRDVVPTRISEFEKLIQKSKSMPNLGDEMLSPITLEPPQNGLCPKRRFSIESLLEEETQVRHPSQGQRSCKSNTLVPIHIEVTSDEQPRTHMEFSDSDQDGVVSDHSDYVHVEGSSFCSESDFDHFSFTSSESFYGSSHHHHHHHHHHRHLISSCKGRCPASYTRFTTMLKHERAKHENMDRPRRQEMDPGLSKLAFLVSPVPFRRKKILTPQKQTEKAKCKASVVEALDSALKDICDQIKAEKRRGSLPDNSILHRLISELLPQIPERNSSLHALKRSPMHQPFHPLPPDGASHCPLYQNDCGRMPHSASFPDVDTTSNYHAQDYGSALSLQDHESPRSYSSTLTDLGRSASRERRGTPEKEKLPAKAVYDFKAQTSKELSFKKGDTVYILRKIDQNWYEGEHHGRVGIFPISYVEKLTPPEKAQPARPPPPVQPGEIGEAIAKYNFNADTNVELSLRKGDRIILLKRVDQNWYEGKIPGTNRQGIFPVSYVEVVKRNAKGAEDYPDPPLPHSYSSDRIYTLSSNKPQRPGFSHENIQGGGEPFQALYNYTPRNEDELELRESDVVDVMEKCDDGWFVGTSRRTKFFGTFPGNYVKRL
Experiment: affinity purification with mass spectrometry; IP of SORBS2 from myocardial tissue of normal adult mice (12 weeks), IgG control; silver-stained gel strips digested with trypsin, LC-MS/MS (Orbitrap Fusion Lumos)

Molecule	binding
ACTN2 (from UniProt Q9JI91 1-894)	binds
MYH7 (from UniProt Q91Z83 1-1935)	binds
B1	binds

Reference: paper PMC8833133
